Assay results reported in PubChem BioAssay AID1487 (National Center for Advancing Translational Sciences (NCATS), 2009).
Some of the results follow. These are further read-outs of the screen, such as a control signal, another cell line or another target. No call is given for them. The list favours compounds with an active or inconclusive main result. Potencies come from curve fits of mixed quality, noted in brackets.

Assay: qHTS Assay for Modulators of Lamin A Splicing
Details: HeLa LMNA splicing GFP/RFP minigene ratio, 48 h
Summary of the method: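 Read-out is the ratio of GFP to DsRed2 object intensity, acquired by 488 nm laser-scanning cytometry on HeLa lamin A-EGFP minigene reporter cells. Compound incubation 48 hrs at 37 °C in Opti-MEM with 2% FBS; DMSO 0.5% final.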

[1] = measured here: GFP splicing reporter channel
[2] = measured here: RFP viability control channel

Compound | AC50 [1] | AC50 [2]
Cc1nc(NCC2CCCO2)c2nnn(Cc3ccccc3)c2n1 (stereo unspecified) | 14.1 µM [rising, partial curve] | 22.4 µM [rising, single point]
COc1cc2c(cc1OC)CN(c1ccc([N+](=O)[O-])cc1C#N)CC2 |  | 11.2 µM [rising, partial curve]
CCN(CC)C(=O)c1cc2c(=O)n3cccc(C)c3nc2n1C |  | 8.91 µM [rising, partial curve, poor fit]
CCOC(=O)c1sc(Nc2ccc(F)cc2)nc1C |  | 0.398 µM [falling, full curve, poor fit]
Cc1nc2ccccn2c1C(=O)/C=C/c1cccc([N+](=O)[O-])c1 | 5.62 µM [falling, partial curve] | 
Cc1ccc(Nc2nc3nonc3[nH]c2=O)cc1C |  | 35.5 µM [rising, single point]
NC(N)=N/N=C/c1ccc(OCc2ccccc2)cc1 | 7.94 µM [rising, partial curve, poor fit] | 12.6 µM [rising, partial curve]
Cc1ccc(CNC(=O)c2cc(Sc3ccc(F)cc3F)nc3ccccc23)cc1 | 6.31 µM [rising, partial curve, poor fit] | 1 µM [rising, full curve, poor fit]
C=CCn1c(SCC(C)=O)nnc1-c1cc(-c2ccccc2)sc1N |  | 35.5 µM [rising, single point]
COC(=O)C1=C(C)N(Cc2ccc(C)cc2)C(=O)/C1=C\c1cc(OC)c(OC)c(OC)c1 | 35.5 µM [falling, single point] | 11.2 µM [falling, single point]
COc1ccc(CNC(=O)CCc2c(C)nn(-c3ccc(N4CCOCC4)nn3)c2C)cc1 |  | 0.02 µM [falling, full curve, poor fit]
CCOC(=O)c1ccc(CN(Cc2ccc(F)cc2)S(=O)(=O)c2cc(C(=O)Nc3ccccc3CC)ccc2F)cc1 |  | 35.5 µM [rising, single point]
FC(F)(F)c1ccccc1-c1nc(-n2ccnc2)c2ccccc2n1 | 15.8 µM [falling, partial curve] | 15.8 µM [falling, single point]
Cc1ccc2ccc3cc(C(=O)Nc4ccc(C)c(F)c4)nc3c2[nH]1 | 35.5 µM [falling, single point] | 35.5 µM [falling, single point]
CC1=C([N+](=O)[O-])C(c2cccc(Br)c2)C2=C(N1)c1ccccc1C2=O (stereo unspecified) | 20 µM [falling, single point] | 2 µM [rising, partial curve]
COc1ccc(C(=O)N2CCc3cc(OC)c(OC)cc3C2c2cccc([N+](=O)[O-])c2)cc1 (stereo unspecified) |  | 12.6 µM [rising, partial curve]
COC(=O)CCCNC(=O)c1ccc(OC2CCN(CCc3ccccc3)CC2)cc1 | 0.00891 µM [falling, full curve, poor fit] | 0.112 µM [falling, partial curve, poor fit]
O=C(/C=C/c1ccco1)NC1=NCCS1 | 35.5 µM [falling, single point] | 

Compound | AC50 [1] | AC50 [2]
CCOC(=O)c1nnn(-c2nc(N(C)C)nc(N(C)C)n2)c1C | 6.31 µM [rising, partial curve, poor fit] | 
C=CCNC(=O)CN(c1cc(Cl)ccc1OC)S(=O)(=O)c1ccc(C)c([N+](=O)[O-])c1 | 0.126 µM [rising, full curve, poor fit] | 
CCCCCCC(=O)Cc1cc(OC)c(OC)cc1C=C(C(=O)OCC)C(=O)OCC |  | 8.91 µM [rising, partial curve, poor fit]
CCOC(=O)N1CCc2c(sc(NC(=O)c3ccc(Cl)s3)c2C(N)=O)C1 |  | 12.6 µM [rising, partial curve]
O=C(C1CC1)N1CCc2cc(Br)cc(S(=O)(=O)NCc3ccc4c(c3)OCO4)c21 |  | 0.708 µM [rising, partial curve]
CCc1ccc(-c2cc(C(F)(F)F)n3nc(C(=O)Nc4cnn(Cc5ccc(C)cc5)c4)cc3n2)s1 | 25.1 µM [falling, single point] | 11.2 µM [falling, partial curve]
CCOc1ccc(-n2c(SCC(=O)c3ccccc3)nc3c([nH]c4ccccc43)c2=O)cc1 |  | 1.26 µM [falling, full curve, poor fit]
CS(=O)(=O)N1CCN(c2ccccc2NC(=O)c2ccc([N+](=O)[O-])o2)CC1 | 7.94 µM [falling, partial curve] | 14.1 µM [falling, partial curve]
C#CC[N+](C)(C)CC#Cc1ccc(Cl)cc1 | 14.1 µM [falling, single point] | 14.1 µM [falling, single point]
CC(c1nnc(SCC(=O)Nc2cccnc2Cl)n1-c1ccccc1)N(C)C (stereo unspecified) |  | 14.1 µM [falling, partial curve, poor fit]
Cc1ccc(C2=NN=C(NC(=O)C(F)(F)F)SC2)cc1 | 2 µM [falling, single point] | 
CN(C)S(=O)(=O)N1CCN(CC(O)COc2ccc(C(=O)c3ccccc3)cc2)CC1 (stereo unspecified) |  | 31.6 µM [rising, single point]
Cc1ccc(C(c2nnnn2C2CCCC2)N2c3ccccc3CC2C)cc1 (stereo unspecified) |  | 14.1 µM [rising, partial curve]
COc1cc(/C=C2/C(=O)ON=C2c2ccccc2)ccc1O |  | 15.8 µM [rising, partial curve]
CCn1c(=O)n(CC2CCC(C(=O)NC(C)C)CC2)c(=O)c2sccc21 (stereo unspecified) | 0.01 µM [falling, full curve] | 
O=c1cc(-c2ccccc2)[nH]n1-c1nc2ccccc2s1 |  | 31.6 µM [rising, single point]
O=C(CN1C(=O)NC2(CCc3ccccc3C2)C1=O)Nc1ccc(F)cc1 (stereo unspecified) |  | 22.4 µM [rising, single point]

8 entries from above in a different format.
Compound	AC50 [1]	AC50 [2]
CCOC(=O)N1CCc2c(sc(NC(=O)c3ccc(Cl)s3)c2C(N)=O)C1		12.6 µM [rising, partial curve]
CS(=O)(=O)N1CCN(c2ccccc2NC(=O)c2ccc([N+](=O)[O-])o2)CC1	7.94 µM [falling, partial curve]	14.1 µM [falling, partial curve]
C#CC[N+](C)(C)CC#Cc1ccc(Cl)cc1	14.1 µM [falling, single point]	14.1 µM [falling, single point]
CN(C)S(=O)(=O)N1CCN(CC(O)COc2ccc(C(=O)c3ccccc3)cc2)CC1 (stereo unspecified)		31.6 µM [rising, single point]
Cc1ccc(C(c2nnnn2C2CCCC2)N2c3ccccc3CC2C)cc1 (stereo unspecified)		14.1 µM [rising, partial curve]
COc1cc(/C=C2/C(=O)ON=C2c2ccccc2)ccc1O		15.8 µM [rising, partial curve]
CCn1c(=O)n(CC2CCC(C(=O)NC(C)C)CC2)c(=O)c2sccc21 (stereo unspecified)	0.01 µM [falling, full curve]	
O=c1cc(-c2ccccc2)[nH]n1-c1nc2ccccc2s1		31.6 µM [rising, single point]
